Data published in PubChem BioAssay AID1671190 (National Center for Advancing Translational Sciences (NCATS), 2021).
Values joined by “and” are separate entries in the source; they are usually repeats but may differ in a detail not shown here. Identical values can stand only once. The whole screen tested about 580,000 compounds, of which about 6,100 (1.1%) were called active. Inconclusive means that the source gave no clear call. Such entries were picked first, then a sample of the others. The call rests on the fitted dose curve; in most records, active means well fitted inhibition curve with a large enough effect; inconclusive means small, poorly fitted or top-dose-only effect, or another doubt; inactive means no such curve, though single readings can be large or run the other way. Potencies beside an inconclusive call are fits to weak or partial responses and may not hold up.

By UniProt entry, the sequences of proteins in these tests, tags left out.
UniProt P18054, whole entry, looked up: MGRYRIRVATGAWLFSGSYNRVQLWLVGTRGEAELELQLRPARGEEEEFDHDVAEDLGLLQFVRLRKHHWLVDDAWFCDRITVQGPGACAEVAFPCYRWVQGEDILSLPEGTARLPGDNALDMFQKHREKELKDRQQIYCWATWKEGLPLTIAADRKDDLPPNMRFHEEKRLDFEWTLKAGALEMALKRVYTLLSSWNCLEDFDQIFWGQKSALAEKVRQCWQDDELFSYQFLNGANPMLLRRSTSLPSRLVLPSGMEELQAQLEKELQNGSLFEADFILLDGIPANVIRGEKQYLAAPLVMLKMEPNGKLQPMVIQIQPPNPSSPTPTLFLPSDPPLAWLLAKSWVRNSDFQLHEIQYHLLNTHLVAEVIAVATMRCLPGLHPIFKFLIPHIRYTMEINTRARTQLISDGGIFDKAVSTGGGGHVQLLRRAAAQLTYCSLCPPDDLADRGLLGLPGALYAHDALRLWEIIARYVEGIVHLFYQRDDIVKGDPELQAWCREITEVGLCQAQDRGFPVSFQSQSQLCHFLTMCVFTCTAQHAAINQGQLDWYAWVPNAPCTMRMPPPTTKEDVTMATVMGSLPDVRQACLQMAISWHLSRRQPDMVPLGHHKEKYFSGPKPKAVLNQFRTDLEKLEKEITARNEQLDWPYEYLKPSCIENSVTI

molecular target: Polyunsaturated fatty acid lipoxygenase ALOX12 (Homo sapiens) (UniProt P18054); experiment: Primary qHTS assay for inhibitors of human arachidonate 12S-lipoxygenase (ALOX12): Round 2; details: purified 12hLO, xylenol orange hydroperoxide absorbance; activity change, negative = inhibition: at 108 µM (top of the series) unless noted
Outline: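 Hydroperoxide product was detected by ferrous iron/xylenol orange as the 573 to 405 nm absorbance ratio. Arachidonic acid at 40 uM (final) was turned over for 30 min at room temperature by 150 nM human 12hLO, pH 7.0 Hepes buffer, after 15 min compound preincubation.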
On the % scale 0 is the no-effect control and ±100 the full control effect; potency means the concentration at half of the fitted maximal effect.

SMILES	Potency	activity change, negative = inhibition
COc1cccc(CC2(CO)CCN(S(=O)(=O)N(C)C)CC2)c1	inconclusive: 50.1 µM [inhibitor, partial curve, poor fit]	–
COc1ccc(Nc2sc(C(=O)c3ccc(Cl)cc3)c(N)c2C(=O)Nc2ccccc2OC)cc1	inconclusive: 39.8 µM [inhibitor, partial curve, poor fit]	–
CN(Cc1cccc(F)c1)Cc1cccn1C	inconclusive: 50.1 µM [inhibitor, partial curve, poor fit]	–
CNC(=O)NC(=O)CN(C)Cc1cccc(Cl)c1Cl	–	inactive: 16%
CO[C@@H]1CO[C@H]2[C@@H]1OC[C@@H]2NC(=S)Nc1ccc(Cl)cc1	active: 79.4 µM	–
O=C(Cc1n[nH]c(=O)c2ccccc12)N1CCN(c2ccccc2F)CC1	inconclusive: 3.55 µM [inhibitor, full curve, poor fit]	–
CC(c1nc2ccccc2[nH]1)N(C(=O)Cc1csc2ccccc12)c1cccnc1 (stereo not drawn)	inconclusive: 126 µM [inhibitor, single point]	–
CCN(CC)C(=O)c1cccc(NC(=O)c2cc(=O)c3cc(C)ccc3o2)c1	–	inactive: 15.7%
Cc1ccc(C)c(CSc2nc3c(cnn3CCO)c(=O)[nH]2)c1	–	inactive: 18%
CC1N(O)C(C)(C)C(c2ccc(Cl)cc2)=[N+]1[O-] (stereo not drawn)	inconclusive: 141 µM [inhibitor, single point]	–
CC(=O)c1cc(-c2ccc(F)cc2)n(CCC(=O)NCc2ccccc2C)c1C	–	inactive: -28.7%
O=C(C[n+]1ccccc1)N/N=C/c1ccc(Cl)cc1	–	inactive: -20.6%
COc1cc(-c2nc3c(c(=O)[nH]c(=O)n3Cc3ccccc3)n2C)ccc1OCc1ccccc1	–	inactive: 12.9%
CS(=O)(=O)c1ccc2nc(NC(=O)CS(=O)(=O)c3ccc(Cl)cc3)sc2c1	inconclusive: 28.2 µM [inhibitor, partial curve]	–
CCNc1ccc(S(=O)(=O)N(CC)CC)cc1N	inconclusive: 44.7 µM [inhibitor, partial curve, poor fit]	–
COc1ccccc1NC(=O)C1CCCN(c2nnc(C)c3c(C)n(-c4ccccc4)nc23)C1 (stereo not drawn)	–	inactive: -13.6%
Cc1ccc(-c2nc3scc(CCNC(=O)c4cccc(Br)c4)n3n2)cc1	–	inconclusive: -30.7% [inhibitor]
C/C(=N/n1c(C)csc1=NC(C)C)c1ccccc1	inconclusive: 28.2 µM [inhibitor, single point]	–
O=C(CCc1ccsc1)N(Cc1ccncc1)C1CC1	–	inactive: 6.32%
S=c1[nH]c2cc(Cl)ccc2s1	inconclusive: 3.98 µM [inhibitor, full curve, poor fit] and active: 44.7 µM	–
COc1ccccc1N1CCN(C/C(C)=C/c2ccccc2)CC1	inconclusive: 28.2 µM [inhibitor, partial curve, poor fit]	–
CCOc1ccccc1NC(=O)CSc1nc2ccccc2c2nc(CCn3cncc3C)nn12	–	inactive: -13.8%
COCCN1C(=O)c2ccccc2C(C(=O)NCc2ccco2)C12CCCC2 (stereo not drawn)	–	inactive: 51.3%
COc1cc(/C=C(\C#N)c2ccccn2)ccc1OCC(=O)Nc1cccc(C(F)(F)F)c1	–	inactive: 8.97%

SMILES	Potency	activity change, negative = inhibition
Cc1csc(NC(=O)Cc2ccc3ccccc3c2)n1	–	inactive: -42%
COc1cc(C=C2C(=O)c3ccccc3C2=O)ccc1O	–	inactive: -25.9%
COc1ccc(NC2=CC(=S)NC(C)(C)C2)cc1	inconclusive: 35.5 µM [inhibitor, single point]	–
O=C(C1CCC1)N1CCCC(c2nc(C3CCOCC3)no2)C1 (stereo not drawn)	inconclusive: 5.62 µM [inhibitor, partial curve, poor fit]	–
Cc1ccc(S(=O)(=O)NCCC(=O)N2CCN(S(=O)(=O)c3ccccc3)CC2)cc1C	–	inactive: 26.6%
C=C(CCCN(Cc1ccccc1)Cc1ccccc1)C(=O)OCC	–	inactive: -33%
COc1ccccc1CCC(=O)Nc1ccc(S(=O)(=O)Nc2cc(C)nc(C)n2)cc1	inconclusive: 56.2 µM [inhibitor, partial curve, poor fit]	–
COc1ccc(C(=O)N2c3ccccc3CC2C)cc1OC (stereo not drawn)	–	inactive: -13.4%
O=C(Cn1c(=O)n(Cc2ccco2)c(=O)c2cccnc21)Nc1ccccc1F	inconclusive: 50.1 µM [inhibitor, partial curve, poor fit]	–
COc1cc2c(-c3ccccc3C)nc3c(c(C)nn3-c3ccccc3)c2cc1OC	–	inactive: -17.9%
CN1CCN(c2ccc(NC(=O)c3ccc(-c4ccc(Cl)cc4)o3)cc2)CC1	–	inactive: 0%
O=C(Nc1ccc2nc(SCC(=O)N3CCCC3)sc2c1)c1ccccc1	–	inactive: -7.43%
COc1ccc(C(=O)Nc2ccc3[nH]c(-c4cccc(OC)c4)cc(=O)c3c2)cc1	inconclusive: 2 µM [inhibitor, full curve, poor fit]	–
COc1ccccc1-c1[nH]nc2ncc(-c3cnn(C)c3)nc12	–	inactive: 5.18% [at 176 µM]
Cc1onc(-c2ccccc2)c1C(=O)NC(=S)NNC(=O)c1ccc(O)cc1O	inconclusive: 39.8 µM [inhibitor, partial curve]	–
CC1CN(Cc2ccccc2)c2ccccc2NC1=S (stereo not drawn)	active: 35.5 µM	–
Cc1cc(S(=O)(=O)NCc2ccncc2)c(C)cc1Br	–	inactive: -15.7%
O=C(/C=C/Nc1ccc(F)cc1F)c1cccs1	–	inactive: -23.8%
O=C1[C@@H]2CSC(c3ccc(F)cc3)N2C(=O)N1c1ccc(Cl)cc1 (stereo partly drawn)	inconclusive: 100 µM [inhibitor, partial curve, poor fit]	–
C#CCOCCOCCOCCNc1nc(N2CCN(C(=O)[C@H]([C@@H](C)CC)n3cc([C@@H](N)CO)nn3)CC2)nc(N2CCN(C(=O)[C@H](Cc3ccc(O)cc3)n3cc([C@@H](N)CC(C)C)nn3)CC2)n1	inconclusive: 12.6 µM [inhibitor, full curve, poor fit]	–
Cn1c(=O)c2c(nc(NC3CCCCC3)n2CC(O)COc2ccccc2)n(C)c1=O (stereo not drawn)	–	inactive: 0.981%
O=C(Cn1c(=O)n(Cc2ccco2)c(=O)c2c3c(sc21)CCCCC3)Nc1ccccc1	inconclusive: 12.6 µM [inhibitor, full curve]	–
COc1cc(/C=N/Nc2ccccn2)ccc1O	–	inactive: 16.6%
CC(C)C[C@@H]1N[C@H](C(=O)NC(C)C)Cc2cn(Cc3nccn3C)c3cccc1c23	–	inactive: 60.9% [at 176 µM]
